Reference: PMC7819943, “Rice protein-binding microarrays: a tool to detect cis-acting elements near promoter regions in rice”
The list shows a part of the results.

Molecular target: T1, OsSMF1 (Oryza sativa, UniProt Q6ZLB0 1-436)
T1 sequence: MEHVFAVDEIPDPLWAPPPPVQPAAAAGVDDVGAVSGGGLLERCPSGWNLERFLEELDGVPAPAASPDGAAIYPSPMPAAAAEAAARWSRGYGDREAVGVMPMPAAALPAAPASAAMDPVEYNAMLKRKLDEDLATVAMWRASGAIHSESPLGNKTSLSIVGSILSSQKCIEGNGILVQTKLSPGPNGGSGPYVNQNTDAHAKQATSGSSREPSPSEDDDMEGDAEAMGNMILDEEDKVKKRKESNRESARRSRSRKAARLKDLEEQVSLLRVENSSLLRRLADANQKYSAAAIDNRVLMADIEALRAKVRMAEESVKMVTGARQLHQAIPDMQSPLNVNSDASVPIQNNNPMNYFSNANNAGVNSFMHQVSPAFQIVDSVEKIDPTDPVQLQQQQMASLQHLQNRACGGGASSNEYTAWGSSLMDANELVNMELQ
Experiment: protein-binding microarray (RPBM); PBS, 2% BSA, 51.3 ng/ul salmon testes DNA, 50 uM zinc acetate, 200 nM TF, 25 C, 1 h; high values mean tight binding
Conditions: protein: recombinant; tags: N-terminal polyhistidine and DsRed monomer fusion (pET32a); chain copies: 2; label: CyDye5-dUTP incorporated in the synthesized complementary strand; 3' TTTTT single-stranded linker to array surface; dsDNA, one strand shown
How it was run: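 Ni–NTA purification followed expression in E. coli BL21-CodonPlus of transcription factors fused N-terminally to a polyhistidine tag and DsRed. At 200 nM in PBS with 2% BSA, salmon testes DNA and 50 µM zinc acetate, the protein was incubated for 1 h at 25 °C with a custom Agilent array that had been primer-extended with Cy5-dUTP and blocked with 2% BSA. After washing, the array was read on an Axon 4000B scanner. The binding signal is per-feature fluorescence intensity in arbitrary units.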

Sequence	binding signal
CCCACAGCGCCGCCCGTCGCCGGCTCAGAAAAGTGAGAGACGGAGTCACCTAGTGCAG	5930 fluorescence intensity (a.u.)
ACCAGCCCACTCAACTGCTGACTCACTCAAGTGATGGTAGCGGAGTCACCTAGTGCAG	5840 fluorescence intensity (a.u.)
TTTGATTATGCTTGTCATTTCCATTCATTTGCTCATATACCGGAGTCACCTAGTGCAG	3350 fluorescence intensity (a.u.)
GAGATGGAAGGTTTGCTGACACAAAGTGCTGTTCTACGCCCGGAGTCACCTAGTGCAG	5050 fluorescence intensity (a.u.)
GACTCGCCACCCCACCATCACCACCCAACCCAACCCAACCCGGAGTCACCTAGTGCAG	3380 fluorescence intensity (a.u.)
CTCTCTTTCCATTCTCCCCGGCGATCGAGTAGCCGGCTTCCGGAGTCACCTAGTGCAG	3930 fluorescence intensity (a.u.)
GAATGACACCGTTATGCTCCGCAATGCGCAGTTTATCTTGCGGAGTCACCTAGTGCAG	3240 fluorescence intensity (a.u.)
AGTAAAACTACCGTCCACGTCACCACCCAACCCCAACGTACGGAGTCACCTAGTGCAG	28400 fluorescence intensity (a.u.)
GCTTGACAAGCAACCACGTCGATCGACCGTCCGTCGTCACCGGAGTCACCTAGTGCAG	3260 fluorescence intensity (a.u.)
ATTATCACTGATGAGCCTAGCTATCAACCATAAACCAAACCGGAGTCACCTAGTGCAG	20500 fluorescence intensity (a.u.)
AGCTGCATTGTTGACTCACTAACCCACGACCGGCGGTCCACGGAGTCACCTAGTGCAG	7310 fluorescence intensity (a.u.)
AAAACATGAATTTCGAGATGATGACCTACTTGATCCTAGGCGGAGTCACCTAGTGCAG	3390 fluorescence intensity (a.u.)
CCACACACTTATGAACACGAGTACAGCCGATGCCCTATAACGGAGTCACCTAGTGCAG	3390 fluorescence intensity (a.u.)
ATGACAAGACTCACCACTAATTAATTAATGACACACCTGGCGGAGTCACCTAGTGCAG	6000 fluorescence intensity (a.u.)
CCCTATCCTCTCTTTTCCCCGACGCAAACACACGCTGGCTCGGAGTCACCTAGTGCAG	3240 fluorescence intensity (a.u.)
CCGCCGTCCAACTCTGCCACGGCCGCCACGTACGCGCGCCCGGAGTCACCTAGTGCAG	13800 fluorescence intensity (a.u.)
TCTCCGGCGACGTTTCTTGATCGTGTTTGTGACTGTGTGCCGGAGTCACCTAGTGCAG	3420 fluorescence intensity (a.u.)
TCTGAGTGGTTCTCTGGGCGTTGTTGGTGCGTTCTTGATCCGGAGTCACCTAGTGCAG	3240 fluorescence intensity (a.u.)
TAAACAGGGCCCTACTGTCATCACGTCGATGTTGAGTTTACGGAGTCACCTAGTGCAG	4070 fluorescence intensity (a.u.)
AGATGTGTAGCTCCACACAAACCCATCATCACCTTCAACCCGGAGTCACCTAGTGCAG	3260 fluorescence intensity (a.u.)
TTATAGCTAATCCATTGTACATGTCAGCTCTAATACATGTCGGAGTCACCTAGTGCAG	5620 fluorescence intensity (a.u.)

A few values from the list.
ATTATCACTGATGAGCCTAGCTATCAACCATAAACCAAACCGGAGTCACCTAGTGCAG | binding signal: 20500 fluorescence intensity (a.u.)
ATGACAAGACTCACCACTAATTAATTAATGACACACCTGGCGGAGTCACCTAGTGCAG | binding signal: 6000 fluorescence intensity (a.u.)
CTCTCTTTCCATTCTCCCCGGCGATCGAGTAGCCGGCTTCCGGAGTCACCTAGTGCAG | binding signal: 3930 fluorescence intensity (a.u.)

(further entries)

Sequence	binding signal
AAAGTTAAATAGAAAGCGCCCCTTATTAATGAGGTGTGGTCGGAGTCACCTAGTGCAG	3630 fluorescence intensity (a.u.)
GCAATACGAGTCCTGGGTTTTGTTCGACGTGGCACATTGACGGAGTCACCTAGTGCAG	11600 fluorescence intensity (a.u.)
CTATCCATCGGTCGGCTCGATCCGTCCTCCGTTTCGCGTGCGGAGTCACCTAGTGCAG	3150 fluorescence intensity (a.u.)
CACACTATACTTCTCCCCGTGACTCGACTAACTCGACTAACGGAGTCACCTAGTGCAG	3510 fluorescence intensity (a.u.)
AATGCCCAGCGATCCTTGTGGGGTGTTGCTGACACGGAGCCGGAGTCACCTAGTGCAG	7270 fluorescence intensity (a.u.)
ATGGGCTGATTCAGTTAAACACATGAGCATTGAGGTGTTTCGGAGTCACCTAGTGCAG	3610 fluorescence intensity (a.u.)
CATTTGGCCAGCTATAGCTGAGCCTCCCACGTCGCCCGTTCGGAGTCACCTAGTGCAG	3350 fluorescence intensity (a.u.)
CAGTCCGACTCCACGCAAACCCCTTCGCTGGCCGAAGGCCCGGAGTCACCTAGTGCAG	3950 fluorescence intensity (a.u.)
TAATGGTAGGTGATGTATCCGTTAACAACGAGATGTCTATCGGAGTCACCTAGTGCAG	3890 fluorescence intensity (a.u.)
GATAAATATCTGAGGAGGGGATGGGGCCCAGACGTCAGCCCGGAGTCACCTAGTGCAG	3960 fluorescence intensity (a.u.)
GCCCGCTTGTACTTTGCCTGGGCACCGTGTAACCCAGCTTCGGAGTCACCTAGTGCAG	3170 fluorescence intensity (a.u.)
GCCTTACACTGTCCTTGATCTTGTGTGACCCATCTATATACGGAGTCACCTAGTGCAG	3270 fluorescence intensity (a.u.)
AATGCACTGTAAATTTAAGTGAGAAAATCGAGTAAGAGATCGGAGTCACCTAGTGCAG	24900 fluorescence intensity (a.u.)
ACGAATGCGAGAGTGCCACGTGTCCCCAACGGCTAGTGAGCGGAGTCACCTAGTGCAG	14800 fluorescence intensity (a.u.)
GGCTGCTCATTGTCGTCTCATCTGGGCTTTTCAATGGGCTCGGAGTCACCTAGTGCAG	53700 fluorescence intensity (a.u.)
GGAGACGCCGTCGACGACATGCCACGACTTGGCGTCGGGGCGGAGTCACCTAGTGCAG	3860 fluorescence intensity (a.u.)
ATACTACCACTAGTGCATGCCCTCGTGTCACTGCATGTGGCGGAGTCACCTAGTGCAG	6710 fluorescence intensity (a.u.)
AGTATTGATCTGGCGATCTGACTGTGGTTATCTTGCTATCCGGAGTCACCTAGTGCAG	4850 fluorescence intensity (a.u.)
CCACGCCCACACGCCACACGTGTGAAACCGCAACGTGGTGCGGAGTCACCTAGTGCAG	5810 fluorescence intensity (a.u.)
ACACAGTAGCATGATGAGATTAGCAGTACATGACGAGTTCCGGAGTCACCTAGTGCAG	3150 fluorescence intensity (a.u.)
GGGATTAAAGATGGCTCAGCCGGTCACGTGGCTGAGCCATCGGAGTCACCTAGTGCAG	3780 fluorescence intensity (a.u.)
